Measurements taken from patent publication US20240398973A1 (Eli Lilly and Company, priority 2017, published 2024).
The star is where a group is joined. For = O=C*

Legend:
[1] = Conjugation ratio determination by intact mass spec; format: physicochemical; conditions: peptide:antibody ratio
[2] = general procedure: Fmoc solid-phase peptide synthesis; Fmoc-Lys(Mtt)-Wang resin, 100-200 mesh, 0.57 meq/g; Fmoc-Lys(Boc)-Wang resin; conditions: for final HPLC purity: analytical RP-HPLC; for isolated yield: based on starting resin substitution
[3] = general procedure: Fmoc solid-phase peptide synthesis; Fmoc-Lys(Boc)-Wang; conditions: whole synthesis, scale 0.3 mmol, HCl salt
[4] = general procedure: Fmoc solid-phase peptide synthesis; Fmoc-Lys(Mtt)-Wang; conditions: whole synthesis, scale 0.3 mmol, TFA salt
[5] = whole synthesis, scale of the general procedure 0.3 mmol, TFA salt

In the case of “LC202: cMet (emibetuzumab) LC 202C mutant conjugated with Peptide-'183; HC SEQ ID NO:43, LC SEQ ID NO:31”, the “Conjugation Ratio (CR)” value [1] is reported as 0.43.
With “HC397: cMet (emibetuzumab) HC 397C mutant conjugated with Peptide-'183; HC SEQ ID NO:48, LC SEQ ID NO:5” the “Conjugation Ratio (CR)” value [1] was 0.36.
With For-MLFK-OH the “final HPLC purity” value ([2]; whole synthesis, scale of the general procedure 0.3 mmol, HCl salt) was >99%, the isolated yield ([2]; whole synthesis, scale 0.3 mmol, HCl salt) was 73% and the isolated mass [3] was 125 mg.
For “H-Met-Leu-Phe-Lys (Mal-PEG12-OH (MLFK; Mal-PEG12-OH; SITE 4 MISC_FEATURE - position 4 is lysine residue modified by amide bond formation to maleimide-polyethylene glycol (PEG) linker)”, the “final HPLC purity” value [2, 5] was >96%, the isolated yield [2, 5] was 10% and the isolated mass [4] was 38.8 mg.
In the case of “formyl-Nle-Leu-Phe-PEG12-Lys (Maleimido-Propionyl)-OH”, the “final HPLC purity” value ([2]; late stage modification step, TFA salt) is reported as >97% and the step yield ([2]; late stage modification step, based on starting material, TFA salt) is reported as 15.1%.
With “HC262: cMet (emibetuzumab) HC 262C mutant conjugated with Peptide-'183; HC SEQ ID NO:46, LC SEQ ID NO:5” the “Conjugation Ratio (CR)” value [1] was 0.62.
For formyl-Met-Leu-Phe-Lys (Mal-PEG12)-OH, the “final HPLC purity” value ([2]; conjugation step, TFA salt) was >96% and the conjugation yield ([2]; conjugation step, based on starting material, TFA salt) was 38%.
